# PubChem BioAssay AID1259254 – NCATS, 2017
# Test: 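Finding genes that stop cells copying their DNA twice in one cycle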 (primary screen)
# Cell system: human HCT116 colorectal cancer cells
# Reagent: single siRNA against human genes
# Duration: 3 days
# Measurement: 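Imaged Hoechst DNA stain sorts each cell into a cycle phase by DNA amount; per plate, G2 fraction set to 0% for non-targeting and 100% for GMNN siRNA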
# Reading the numbers: G2 robust z-score and G2 cells, % of GMNN control: higher = more G2 cells, more excess DNA replication; raw share of cells in G2: higher = larger share of cells with G2 DNA content
# Hit rule: 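An siRNA counts as active if its G2 robust z-score lies at least 5 MADs above the screen median; here such calls match roughly 38% of GMNN control or more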
# In all, the deposit lists about 59,000 reagents; shown is a random part of them. About 1,550 of them (2.6%) were called active. 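G2 share is only a proxy for re-replication; each gene was hit by three separate siRNAs, and active genes were retested.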 Raw values are not corrected between plates. The numbers tell different reagents against one gene apart. Not given: the amount of reagent.
target,siRNA no.,G2 robust z-score,"G2 cells, % of GMNN control",raw share of cells in G2 (%),call
FBXL2,1,-0.903,-3.39,3.14,inactive
FBXL2,2,0.947,9.63,8.11,inactive
FBXL2,3,-0.303,0.838,3.59,inactive
SGSM2,1,-1.24,-5.78,2.72,inactive
SGSM2,2,1.82,15.8,10.5,inactive
SGSM2,3,1.04,10.3,7.15,inactive
KRT84,1,-0.905,-3.4,4.05,inactive
KRT84,2,-0.723,-2.12,4.63,inactive
KRT84,3,-0.661,-1.68,2.64,inactive
FBN3,1,0.302,5.09,6.67,inactive
FBN3,2,-0.21,1.49,4.73,inactive
FBN3,3,-0.45,-0.198,5.35,inactive
TAP2,1,1.43,13,8.48,inactive
TAP2,2,0.193,4.33,6.33,inactive
TAP2,3,10.2,74.4,30.6,active
SBSPON,1,-0.423,-0.0109,3.6,inactive
SBSPON,2,-0.253,1.19,3.36,inactive
SBSPON,3,1.8,15.7,7.72,inactive
BAMBI,1,6.4,48,22.5,active
BAMBI,2,0.238,4.64,5.95,inactive
BAMBI,3,-0.519,-0.685,3.06,inactive
DNAAF5,1,-0.276,1.03,3.97,inactive
DNAAF5,2,-0.253,1.19,4.77,inactive
DNAAF5,3,-0.662,-1.69,2.63,inactive
KHSRP,1,1.39,12.7,9.26,inactive
KHSRP,2,-1.14,-5.03,3.5,inactive
KHSRP,3,0.151,4.03,6.37,inactive
RPS21,1,6.1,45.9,24.5,active
RPS21,2,2.77,22.4,13.1,inactive
RPS21,3,2.02,17.2,9.57,inactive
CD101,1,0.461,6.21,8.14,inactive
CD101,2,-0.284,0.968,4.35,inactive
CD101,3,0.562,6.92,5.92,inactive
CHN1,1,-0.158,1.85,5.62,inactive
CHN1,2,-0.331,0.641,5.23,inactive
CHN1,3,-1.44,-7.16,1.63,inactive
C19orf38,1,-0.631,-1.48,3.04,inactive
C19orf38,2,-0.0641,2.52,3.99,inactive
C19orf38,3,-0.0489,2.62,4.03,inactive
RALGPS2,1,4.74,36.3,19.5,inactive
RALGPS2,2,4.77,36.5,22.4,inactive
RALGPS2,3,2.1,17.8,10.8,inactive

Limited to “raw share of cells in G2 (%)” (13 entries from above):
BAMBI #3 = 3.06
DNAAF5 #1 = 3.97
DNAAF5 #2 = 4.77
DNAAF5 #3 = 2.63
KHSRP #1 = 9.26
KHSRP #2 = 3.5
KHSRP #3 = 6.37
RPS21 #1 = 24.5
RPS21 #2 = 13.1
RPS21 #3 = 9.57
CD101 #1 = 8.14
CD101 #2 = 4.35
CD101 #3 = 5.92

Further records follow:
target,siRNA no.,G2 robust z-score,"G2 cells, % of GMNN control",raw share of cells in G2 (%),call
SPMIP4,1,-0.508,-0.605,2.36,inactive
SPMIP4,2,-0.401,0.148,4.23,inactive
SPMIP4,3,0.163,4.12,4.41,inactive
NHLRC1,1,-0.328,0.661,4.53,inactive
NHLRC1,2,-0.458,-0.258,5.79,inactive
NHLRC1,3,4.86,37.2,19.5,inactive
AMOT,1,0.159,4.08,5.07,inactive
AMOT,2,0.914,9.4,6.11,inactive
AMOT,3,-0.121,2.12,3.43,inactive
TBC1D4,1,4.99,38.1,22.5,inactive
TBC1D4,2,2.02,17.1,11.1,inactive
TBC1D4,3,1.36,12.6,7.98,inactive
AMDHD2,1,-0.758,-2.37,2.89,inactive
AMDHD2,2,-0.0426,2.67,5.23,inactive
AMDHD2,3,-0.701,-1.96,5.06,inactive
CKS1B,1,-0.0628,2.53,4.97,inactive
CKS1B,2,2.56,21,12.5,inactive
CKS1B,3,0.156,4.07,6.48,inactive
LOC388282,1,-0.634,-1.49,3.26,inactive
LOC388282,2,9.29,68.3,33.1,active
LOC388282,3,1.01,10,8.94,inactive
PIK3C2B,1,0.134,3.91,6.9,inactive
PIK3C2B,2,-1.37,-6.68,3.16,inactive
PIK3C2B,3,-0.26,1.14,4.42,inactive
DGKG,1,-0.877,-3.2,2.9,inactive
DGKG,2,-1.13,-4.95,3.97,inactive
DGKG,3,-1.02,-4.24,3.98,inactive
TACC3,1,1.67,14.7,12,inactive
TACC3,2,-0.314,0.759,4.26,inactive
TACC3,3,3.17,25.3,12.6,inactive
PHF20,1,-0.569,-1.04,2.43,inactive
PHF20,2,-0.214,1.46,6.57,inactive
PHF20,3,1.89,16.2,8.73,inactive
BBOX1,1,2.87,23.2,13,inactive
BBOX1,2,-0.851,-3.02,4.2,inactive
BBOX1,3,1.34,12.4,10.2,inactive
COL6A1,1,-0.625,-1.43,2.89,inactive
COL6A1,2,1.04,10.3,9.68,inactive
COL6A1,3,-0.325,0.679,3.35,inactive
APOL3,1,-0.0947,2.3,5.64,inactive
APOL3,2,0.488,6.4,8.1,inactive
APOL3,3,-0.946,-3.69,2.86,inactive
POLE,1,0.139,3.95,6.34,inactive
POLE,2,-1.19,-5.42,2.61,inactive
POLE,3,3.06,24.5,12.3,inactive
